These are yes or no findings as the source states them, for the method shown. Some results given as binding are weak or reduced against the parent protein; the word gives no strength.
B1: O19 scFv (scFv, not shown: a dimerising Fc or GST)
scFv: QVQLVESEGGLVQPGGSLRLSCAASRFTFSNYWMSWVRQAPGKGLEWVANIKQDGSEKYYMDSVKGRFTISRDNAKNSLFLQMNTLRAEDTAMYYCTRVSFGVPTYDDFWRSYATPAWYFDFWGRGTLVTVSSGGGGSGGGGSGGGGSQSALIQPASVSGSPGQSITISCTGISSDDGYYKYVSWYQQYPGKAPKLMIYDVSKRPSGISFRFSGSKSGNTASLTISGLQAEDEADYYCSSYTSNMTPYVFGTGTKVTVL
B2: O19 mAb (antibody, IgG4, V domains shown)
VH: QVQLVESEGGLVQPGGSLRLSCAASRFTFSNYWMSWVRQAPGKGLEWVANIKQDGSEKYYMDSVKGRFTISRDNAKNSLFLQMNTLRAEDTAMYYCTRVSFGVPTYDDFWRSYATPAWYFDFWGRGTLVTVSS
VL: QSALIQPASVSGSPGQSITISCTGISSDDGYYKYVSWYQQYPGKAPKLMIYDVSKRPSGISFRFSGSKSGNTASLTISGLQAEDEADYYCSSYTSNMTPYVFGTGTKVTVL
notes: IgG4, lambda; expressed in HEK293; not shown: human immunoglobulin gamma4 (IgG4) constant region, P01861; human immunoglobulin lambda light chain constant region, A0M8Q6

Amino acid sequences for entries named in this document (tags omitted). Residues count along the entry.
UniProt P43489, residues 29-277: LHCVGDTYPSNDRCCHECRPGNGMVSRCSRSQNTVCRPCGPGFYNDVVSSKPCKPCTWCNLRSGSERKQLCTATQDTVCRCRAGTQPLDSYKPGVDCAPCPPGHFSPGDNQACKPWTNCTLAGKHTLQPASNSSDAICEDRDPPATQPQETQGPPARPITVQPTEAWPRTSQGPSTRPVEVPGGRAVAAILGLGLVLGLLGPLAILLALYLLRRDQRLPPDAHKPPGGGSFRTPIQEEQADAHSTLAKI

Key:
[1] = molecular target: hOX40-EGFP on HEK293 cells (human) (UniProt P43489); test: flow cytometry on hOX40-EGFP HEK293 cells, 2 µg scFv, anti-hIg-PE
[2] = molecular target: hOX40-EGFP on HEK293 cells (human) (UniProt P43489); test: flow cytometry on HEK293 cells expressing hOX40-EGFP
[3] = molecular target: hOX40-EGFP on HEK293 cells (human) (UniProt P43489); test: flow cytometry on HEK293 cells expressing hOX40-EGFP, anti-hIg-PE

Binder | binding [1] | binding [2] | binding [3]
B1 | binds |  | 
B2 |  | binds | binds

Source: US20180339059A1 (DINGFU BIOTARGET, published 2018)
